This experiment has as its system CD2F1 mice, L1210 leukemia sc, survival T/C. Briefly: NCI In Vivo Anticancer Drug Screen. Data for tumor model L1210 Leukemia (subcutaneous) in CD2F1 (CDF1) mice. The settings on record: T/C endpoint: median survival time, higher T/C = longer survival. Here is the method:
The antitumor activity of compounds was measured in mice bearing transplantable tumors. Survival or tumor size were measured and the results are expressed as the measurement made in the treated group (T) divided by the measurement made in the vehicle treated control group (C). The tumor model used in this assay is L1210 Leukemia (subcutaneous) in CD2F1 (CDF1) mice

[1] abbreviates: dose: 32.0 mg/kg/injection, schedule: Q01DX009 (sc), vehicle: saline.

The list shows only some results of the screen, not a fair sample: it gathers tests that were run many times, whatever their T/C, doses with no T/C, and many T/C values between a quarter and a half above the control. Other doses and runs of a compound stand elsewhere. T/C: endpoint of the treated group in % of that of the vehicle group. Some entries give survivors of the animals treated and no T/C: the source files T/C as zero there, which appears to mark a toxic dose or a test without result, not a measured value. Some survivor counts are full or nearly so, which does not show that the dose was tolerated: the source hardly ever lists a survival T/C far under the control, and the zero likely stands for such cases as well. Survivors were counted at the toxicity check, usually on the fifth day, unless a day is given; later deaths do not show. Schedules are NCI's codes, read here as Q, the interval in days (D) or hours (H), X, the number of doses. Some schedules carry Z or #; the key to these is not given. Some doses were run more than once; the values are given in rising order. For survival time, this PubChem deposit counts one and a half times the control or more as active, and values a quarter to a half above the control carry no call in these data; other NCI protocols may use other cut-offs. Some T/C values carry the count of animals alive at the toxicity check (mostly the fifth day); where none is given, no animal had died by that day.

The values below come from PubChem BioAssay AID258 (DTP/NCI, 2004).

On to `CC1CCC(NC(=O)N(CCCl)N=O)CC1` (stereo not given), for which the T/C was 133 % of control (dose: 2.0 mg/kg/injection, schedule: Q01DX009 (ip), vehicle: saline + alcohol); 125 % of control (dose: 4.0 mg/kg/injection, schedule: Q01DX009 (sc), vehicle: saline + alcohol); 141 % of control (dose: 8.0 mg/kg/injection, schedule: Q01DX009 (sc), vehicle: saline + alcohol); 125 % of control [9 of 10 alive] (dose: 16.0 mg/kg/injection, schedule: Q01DX009 (sc), vehicle: saline + alcohol); 143 % of control (dose: 32.0 mg/kg/injection, schedule: Q01DX009 (sc), vehicle: saline + alcohol); 144 % of control (dose: 64.0 mg/kg/injection, schedule: Q01DX009 (sc), vehicle: saline + alcohol). The T/C (dose: 128.0 mg/kg/injection, schedule: Q01DX009 (sc), vehicle: saline + alcohol) was 145 % of control.

On to `O=c1n[n+]([O-])ccn1C1OC(CO)C(O)C1O` (stereo not given), for which the survivor count (dose: 800.0 mg/kg/injection, schedule: Q01DX009 (ip), vehicle: saline) is 1 of 10.

Consider `N[C@H](C(=O)O)[C@H]1ON=C(Cl)[C@@H]1O`, for which the T/C by setting is: under setting [1], 141 % of control; (dose: 128.0 mg/kg/injection, schedule: Q01DX009 (sc), vehicle: saline) 139 % of control; (dose: 256.0 mg/kg/injection, schedule: Q01DX009 (sc), vehicle: saline) 132 % of control; (dose: 512.0 mg/kg/injection, schedule: Q01DX009 (sc), vehicle: saline) 126 % of control.

For `COc1cccc2c1C(=O)c1c(O)c3c(c(O)c1C2=O)C[C@@](O)(C(=O)CO)C[C@@H]3OC1CC(OC(C)=O)C(OC(C)=O)C(C)O1` (stereo not given in full), where the note is “dose: 6.25 mg/kg/injection, schedule: Q01DX009 (ip), vehicle: distilled water + Tween-80”, the T/C was 125 and 134 % of control. In addition, the survivor count (dose: 25.0 mg/kg/injection, schedule: Q01DX009 (ip), vehicle: distilled water + Tween-80) is recorded as 10 of 10.

For `CC(C)(C)N1CC1CNC(=O)C(=O)NCC1CN1C(C)(C)C` (stereo not given), the T/C was 132 % of control (dose: 6.25 mg/kg/injection, schedule: Q01DX009 (ip), vehicle: saline with Tween-80) and 126 % of control (dose: 12.5 mg/kg/injection, schedule: Q01DX009 (ip), vehicle: saline with Tween-80). Moreover, the survivor count was 10 of 10 (dose: 25.0 mg/kg/injection, schedule: Q01DX009 (ip), vehicle: saline with Tween-80); 4 of 10 and 8 of 10 (dose: 50.0 mg/kg/injection, schedule: Q01DX009 (ip), vehicle: saline with Tween-80).

As to `CC(=O)[C@H]1CC[C@H]2[C@@H]3C[C@H](C)C4=CC(=O)CC[C@]4(C)[C@H]3C(=O)C[C@]12C`, the survivor count is 4 of 10 (dose: 20.0 mg/kg/injection, schedule: Q01DX009 (sc), vehicle: saline with Tween-80); 4 of 10 (dose: 40.0 mg/kg/injection, schedule: Q01DX009 (sc), vehicle: saline with Tween-80); 1 of 10 (dose: 80.0 mg/kg/injection, schedule: Q01DX009 (sc), vehicle: saline with Tween-80); 5 of 10 (dose: 160.0 mg/kg/injection, schedule: Q01DX009 (sc), vehicle: saline with Tween-80); 3 of 10 (dose: 320.0 mg/kg/injection, schedule: Q01DX009 (sc), vehicle: saline with Tween-80); 6 of 10 (dose: 640.0 mg/kg/injection, schedule: Q01DX009 (ip), vehicle: saline with Tween-80). Besides, where the note is “dose: 640.0 mg/kg/injection, schedule: Q01DX009 (sc), vehicle: saline with Tween-80”, the survivor count is given as 4 of 10.

`O=C[C@@H](CO)O[C@H](C=O)c1c[nH]c(=O)[nH]c1=O`: the T/C (dose: 150.0 mg/kg/injection, schedule: Q04DX003 (ip), vehicle: saline) was 134 % of control. Further, under “dose: 250.0 mg/kg/injection, schedule: Q04DX003 (ip), vehicle: saline”, the survivor count is 3 of 6.

As for `COC(=O)C(CCc1ccccc1[N+](=O)[O-])C(=O)OC`, the survivor count is 1 of 10 (dose: 5.0 mg/kg/injection, schedule: Q01DX Z (sc), vehicle: other); 0 of 10 (dose: 8.4 mg/kg/injection, schedule: Q01DX Z (sc), vehicle: other); 2 of 10 (dose: 14.0 mg/kg/injection, schedule: Q01DX Z (sc), vehicle: other); 2 of 10 (dose: 23.0 mg/kg/injection, schedule: Q01DX Z (sc), vehicle: other); 2 of 10 (dose: 39.0 mg/kg/injection, schedule: Q01DX Z (sc), vehicle: other); 1 of 10 (dose: 65.0 mg/kg/injection, schedule: Q01DX Z (sc), vehicle: other). The survivor count runs as follows: (dose: 108.0 mg/kg/injection, schedule: Q01DX Z (sc), vehicle: other) 0 of 10; (dose: 180.0 mg/kg/injection, schedule: Q01DX Z (sc), vehicle: other) 0 of 10.

For the compound `O=NNc1cnccn1`, the T/C (dose: 24.0 mg/kg/injection, schedule: Q01DX009 (ip), vehicle: water) is 137 % of control. For the same compound, the survivor count is given as 9 of 9 (dose: 111.1 mg/kg/injection, schedule: Q01DX009 (ip), vehicle: water) and 1 of 10 (dose: 185.17 mg/kg/injection, schedule: Q01DX009 (ip), vehicle: water).

For the compound `Cc1c(N)nc([C@H](CC(N)=O)NC[C@H](N)C(N)=O)nc1C(=O)N[C@H](C(=O)N[C@H](C)[C@@H](O)[C@H](C)C(=O)N[C@H](C(=O)NCCc1nc(-c2nc(C(=O)NCCC[S+](C)C)cs2)cs1)[C@@H](C)O)C(OC1OC(CO)C(O)C(O)C1OC1OC(CO)C(O)C(OC(N)=O)C1O)c1cnc[nH]1` (stereo not given in full), the survivor count runs as follows: (dose: 2.0 mg/kg/injection, schedule: Q01DX009 (sc), vehicle: saline) 1 of 10; (dose: 4.0 mg/kg/injection, schedule: Q01DX009 (sc), vehicle: saline) 3 of 10; (dose: 8.0 mg/kg/injection, schedule: Q01DX009 (sc), vehicle: saline) 1 of 10; (dose: 16.0 mg/kg/injection, schedule: Q01DX009 (sc), vehicle: saline) 1 of 10; under setting [1], 0 of 10.

Take `FC(F)(F)c1nc2nc(Cl)c(Cl)nc2[nH]1`: the survivor count is given as 3 of 6 (dose: 100.0 mg/kg/injection, schedule: Q04DX003 (ip), vehicle: saline with Tween-80) and 0 of 6 (dose: 150.0 mg/kg/injection, schedule: Q04DX003 (ip), vehicle: saline with Tween-80).

Take `COc1cc2c(c(OC)c1OC)-c1ccc(O)cc1[C@@H](NC(C)=O)CC2`: the survivor count runs as follows: (dose: 8.4 mg/kg/injection, schedule: Q01DX Z (sc), vehicle: methylcellulose (MC)) 4 of 10; (dose: 14.0 mg/kg/injection, schedule: Q01DX Z (sc), vehicle: methylcellulose (MC)) 1 of 10; (dose: 23.0 mg/kg/injection, schedule: Q01DX Z (sc), vehicle: methylcellulose (MC)) 3 of 10; (dose: 39.0 mg/kg/injection, schedule: Q01DX Z (sc), vehicle: methylcellulose (MC)) 5 of 10; (dose: 65.0 mg/kg/injection, schedule: Q01DX Z (sc), vehicle: methylcellulose (MC)) 4 of 10.

Take `C[C@]12C=CC(=O)C=C1CC[C@@H]1[C@@H]2CC[C@]2(C)OC(=O)CC[C@@H]12`: the survivor count reads like this: (dose: 108.0 mg/kg/injection, schedule: Q01DX Z (sc), vehicle: methylcellulose (MC)) 1 of 10; (dose: 180.0 mg/kg/injection, schedule: Q01DX Z (sc), vehicle: methylcellulose (MC)) 0 of 10; (dose: 300.0 mg/kg/injection, schedule: Q01DX Z (sc), vehicle: methylcellulose (MC)) 0 of 10; (dose: 500.0 mg/kg/injection, schedule: Q01DX Z (sc), vehicle: methylcellulose (MC)) 0 of 10; (dose: 833.0 mg/kg/injection, schedule: Q01DX Z (sc), vehicle: methylcellulose (MC)) 2 of 10.
